From patent US10669274B2, “Azaphenalene-3-one derivative, preparation method therefor, and application therof” (SUZHOU KANGRUN PHARMACEUTICALS INC., priority 2017, dated 2020)
Some of these results come from one statement about several compounds together. For at least one compound, name, drawing or mass did not settle the structure.

The chains behind the UniProt entries cited, without tags or fusion partners.
UniProt P09874, whole entry: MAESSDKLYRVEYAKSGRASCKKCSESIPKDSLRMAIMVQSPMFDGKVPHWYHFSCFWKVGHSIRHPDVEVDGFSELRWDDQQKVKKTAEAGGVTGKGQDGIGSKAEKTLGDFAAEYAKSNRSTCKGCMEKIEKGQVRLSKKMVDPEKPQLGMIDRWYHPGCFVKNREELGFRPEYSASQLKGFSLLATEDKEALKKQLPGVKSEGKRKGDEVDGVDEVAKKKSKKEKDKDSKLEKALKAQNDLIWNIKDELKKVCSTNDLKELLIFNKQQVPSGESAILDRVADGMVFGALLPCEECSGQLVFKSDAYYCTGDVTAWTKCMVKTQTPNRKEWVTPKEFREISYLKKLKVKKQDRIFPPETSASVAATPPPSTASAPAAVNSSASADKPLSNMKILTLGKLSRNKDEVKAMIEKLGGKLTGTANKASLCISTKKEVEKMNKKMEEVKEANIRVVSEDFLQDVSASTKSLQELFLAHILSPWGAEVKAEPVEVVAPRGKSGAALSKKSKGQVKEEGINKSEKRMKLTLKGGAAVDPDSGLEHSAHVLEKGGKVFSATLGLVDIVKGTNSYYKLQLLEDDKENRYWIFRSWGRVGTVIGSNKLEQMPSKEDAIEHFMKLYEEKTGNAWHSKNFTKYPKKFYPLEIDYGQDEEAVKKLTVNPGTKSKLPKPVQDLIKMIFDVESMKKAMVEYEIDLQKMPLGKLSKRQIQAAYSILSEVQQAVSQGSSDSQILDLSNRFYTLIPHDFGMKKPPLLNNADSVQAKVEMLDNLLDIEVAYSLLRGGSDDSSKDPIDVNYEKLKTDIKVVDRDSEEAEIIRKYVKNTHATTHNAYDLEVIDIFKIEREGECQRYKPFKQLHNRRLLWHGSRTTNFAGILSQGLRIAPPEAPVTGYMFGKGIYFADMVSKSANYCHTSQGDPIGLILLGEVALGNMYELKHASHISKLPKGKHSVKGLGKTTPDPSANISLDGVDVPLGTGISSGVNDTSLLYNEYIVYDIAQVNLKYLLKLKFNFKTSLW

Molecular target: T1, PARP1 (Homo sapiens, UniProt P09874)
T1 construct: purchased Trevigen
Assay: Determination of PARP1 inhibitory activity (Universal PARP colorimetric assay kit, Trevigen)
Type: biochemical
Settings: PARP1, OD at 450 nm, Logit method
Protocol: Determination of PARP1 inhibitory activity
Method for determining PARP1 inhibitory activity:
(1) adding 50 μL of 1X PARP Buffer to each well, incubating for 30 min at room temperature, and drying;
(3) adding 25 μL of 1X PARP1 cocktail to each well and incubating for 60 min at room temperature;

O=c1[nH]nc2c3c(cccc13)N=C1C=CC(Cn3ccnc3)=CN12 [Compound A5]
IC50 (nM): at the nM level
